The values below come from paper doi:10.1101/2021.11.11.468194.

One assay deals with T7-tagged TBC1D18 (UniProt Q5R372). In words: co-IP.
The target of assay [1] is T1, glutathione S-transferase (GST)-tagged Appl1-N (mouse) (UniProt Q8K3H0).
T1 sequence: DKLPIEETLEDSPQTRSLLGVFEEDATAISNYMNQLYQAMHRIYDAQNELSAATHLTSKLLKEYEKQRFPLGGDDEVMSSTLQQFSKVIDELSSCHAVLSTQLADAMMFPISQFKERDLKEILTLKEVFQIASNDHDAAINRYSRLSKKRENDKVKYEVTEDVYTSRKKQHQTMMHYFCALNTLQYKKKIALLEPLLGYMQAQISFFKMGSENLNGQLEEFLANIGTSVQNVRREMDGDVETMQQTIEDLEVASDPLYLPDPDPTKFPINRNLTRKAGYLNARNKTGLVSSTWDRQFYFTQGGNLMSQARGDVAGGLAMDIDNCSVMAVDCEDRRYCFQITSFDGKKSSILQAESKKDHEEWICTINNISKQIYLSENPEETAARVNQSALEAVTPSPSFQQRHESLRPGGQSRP
Description: pull-down.

Results are given in words; binding and its absence hold for the method and conditions named. In cells and extracts the contact can be indirect. Some results given as binding are weak or reduced against the parent protein; the word gives no strength. Sequences can lack the tags named with a protein.

B1: FLAG-tagged Mon1b (protein, UniProt Q8BMQ8 1-553)
chain: MEAGGDNAVPAPGGVEDLVDTQFPREEAGDSERVHASTLDPGDGDPEDTGSKDQPSSLLSPLPQTEAASSTCEHWETAAASDSSPPGEPESNSEGQGEDPDDGGDPSDEDWRSQRKHVFVLSEAGKPIYSRYGSVEALSATMGVMTALVSFVQSAGDAIRAIYAEDHKLVFLQQGPLLLVAVSRTPQSAAQLRGELLAVHAQIVSTLTRASVARIFAHKQNYDLRRLLAGSERTLDRLLDSVEQDPGALLLGAVRCVPLARPLRDALGTLLRRCTAPGLALSVLAVGGRLITVAQERNVLAECRLDPADLQLLLDWVGAPAFAAGEAWAPVCLPRFNPDGFFYAYVARLDSMPVCLLLLGTNREAFHAMAACRRLVEDGMHNLGALRTLGEAANFSNGPAASAPAYSVQAVGAPGLRHFLYKPLDIPEQHRQLPQFTSPELEAPYSREEERQRLSDLYHRLHARLHSTSRPLRLIYHVAEKETLLAWVTSKFELYTCLSPLVTKAGAILVVTKLLRWVRKEEDRLFIRYPPKYSTPPSTSADQAPNNGLFTGL
Turning to B1, the binding result in the assay with T7-tagged TBC1D18 is listed as “binds”.

B2: FLAG-tagged Mon1a (protein, UniProt Q6PDG8 1-556)
chain: MAADMQRKRSSECPEGTLAPSNGQSVERAESPTPGLTQGTEPGAGQEGAMFVHTRSYEDLTELEDREASGDSPKECVGSPPPLATDMRQISQDFSELSTQLTGVARDLQEEMLPGSSEDWPEPQGAAGRGAATEPSQEGSTEGEEEDATEAWRLHQKHVFVLSEAGKPVYSRYGSEEALSSTMGVMVALVSFLEADKNAIRSIHADGYKVVFVRRSPLVLVAVARTRQSAQELAQELLYIYYQILSLLTGAQLSHIFQQKQNYDLRRLLSGSERITDNLLQLMARDPSFLMGAARCLPLAAAVRDTVSASLQQARARSLVFSILLAHNQLVALVRRKDQFLHPIDLHLLFNLISSSSSFREGEAWTPVCLPKFNAAGFFHAHISYLEPDTDLCLLLISTDREDFFAVSDCRRRFQERLRKRGTHLALREALRTPYYSVAQVGIPDLRHFLYKSKSSGLFTSPEIEAPYSSEEEQERLLGLYQYLHSRAHNASRPLKTIYYTGPNENLLAWVTGAFELYMCYSPLGTKASAVSAIHKLMRWIRKEEDRLFILTPLTY
Take B2: in the assay with T7-tagged TBC1D18, the binding entry is “binds”.

B3: Rab5 (active, GTP-bound) (protein, UniProt P18066 1-215)
chain: MANRGATRPNGPNTGNKICQFKLVLLGESAVGKSSLVLRFVKGQFHEFQESTIGAAFLTQTVCLDDTTVKFEIWDTAGQERYHSLAPMYYRGAQAAIVVYDITNEESFARAKNWVKELQRQASPNIVIALSGNKADLANKRAVDFQEAQSYADDNSLLFMETSAKTSMNVNEIFMAIAKKLPKNEPQNPGANSARGRGVDLTEPTQPTRSQCCSN
As for B3, in assay [1], the binding entry is recorded as “binds”.
